PubChem BioAssay AID493246 – Drosophila RNAi Screening Center, 2011
Assay: 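Genes fly cells need to grow and stay alive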 (primary screen). Cells: Drosophila Kc and S2R+ cells. Reagents: long dsRNA against Drosophila genes. Measured: 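Cell number per well after knock-down, printed as raw plate values; calls were based on per-plate z-scores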. Scale: Kc cell number and S2R+ cell number: higher = more cells remaining. Call rule: 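Counted as a hit if cell number falls by a z-score of at least 3 within its plate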.
The screen tested about 21,000 reagents; below is an unselected part of those with a known target gene and a result. Of all reagents, 429 (2%) got an active call. 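Values are raw and not normalised between plates; calls rest on per-plate z-scores that were not deposited.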 Not given: the amount of reagent, the time to read-out.

| Gene | DRSC id | Kc cell number, rep 1 | Kc cell number, rep 2 | S2R+ cell number, rep 1 | S2R+ cell number, rep 2 | activity call |
| --- | --- | --- | --- | --- | --- | --- |
| CG5111 | DRSC15717 | 1.56e6 | 1.49e6 | 9.60e5 | 1.07e6 | inactive |
| CG15882 | DRSC19735 | 1.43e6 | 1.47e6 | 1.07e6 | 1.15e6 | inactive |
| CG30384 | DRSC06032 | 1.74e6 | 1.74e6 | 1.33e6 | 1.49e6 | inactive |
| cyr (cypher) | DRSC18017 | 1.53e6 | 1.46e6 | 1.05e6 | 1.12e6 | inactive |
| cyr (cypher) | DRSC18018 | 1.53e6 | 1.46e6 | 1.03e6 | 1.12e6 | inactive |
| cyr (cypher) | DRSC18021 | 1.54e6 | 1.52e6 | 9.93e5 | 1.08e6 | inactive |
| Hem (HEM-protein) | DRSC11865 | 1.67e6 | 1.70e6 | 1.38e6 | 1.37e6 | inactive |
| Mlp60A (Muscle LIM protein at 60A) | DRSC04623 | 1.63e6 | 1.73e6 | 1.17e6 | 1.33e6 | inactive |
| BI-1 (Bax Inhibitor-1) | DRSC10782 | 1.27e6 | 1.35e6 | 1.23e6 | 1.17e6 | inactive |
| Gs2 (Glutamine synthetase 2) | DRSC20250 | 1.56e6 | 1.50e6 | 1.07e6 | 1.16e6 | inactive |
| CG6106 | DRSC19971 | 1.47e6 | 1.48e6 | 1.10e6 | 1.26e6 | inactive |
| Sirt4 (Sirtuin 4) | DRSC18290 | 1.47e6 | 1.43e6 | 1.03e6 | 1.15e6 | inactive |
| mRpS34 (mitochondrial ribosomal protein S34) | DRSC09918 | 1.09e6 | 1.34e6 | 1.15e6 | 1.30e6 | inactive |
| CG13506 | DRSC04150 | 1.58e6 | 1.72e6 | 1.21e6 | 1.41e6 | inactive |
| Eaf (ELL-associated factor) | DRSC05050 | 1.34e6 | 1.42e6 | 8.95e5 | 9.59e5 | inactive |
| Eaf (ELL-associated factor) | DRSC06052 | 1.69e6 | 1.79e6 | 1.27e6 | 1.40e6 | inactive |
| CG10163 | DRSC09710 | 1.47e6 | 1.42e6 | 1.20e6 | 1.23e6 | inactive |
| CG3769 | DRSC02723 | 1.49e6 | 1.55e6 | 1.23e6 | 1.38e6 | inactive |
| CG11597 | DRSC09847 | 1.47e6 | 1.59e6 | 1.39e6 | 1.29e6 | inactive |
| Mnat9 (microtubule-associated Nat9) | DRSC14325 | 1.45e6 | 1.47e6 | 9.68e5 | 1.12e6 | inactive |
| sigmar (salivary glands marred) | DRSC04449 | 1.38e6 | 1.45e6 | 1.11e6 | 1.24e6 | inactive |
| CG14722 | DRSC14944 | 1.62e6 | 1.72e6 | 1.18e6 | 1.25e6 | inactive |
| ttm50 (tiny tim 50) | DRSC18587 | 5.50e5 | – | 7.98e5 | – | inactive |
| CG8142 | DRSC20086 | 1.60e6 | 1.63e6 | 1.06e6 | 1.26e6 | inactive |
| Mapmodulin | DRSC06956 | 1.44e6 | 1.51e6 | 1.23e6 | 1.26e6 | inactive |
| Fer2 (48 related 2) | DRSC15925 | 1.54e6 | 1.78e6 | 1.08e6 | 1.18e6 | inactive |
| kis (kismet) | DRSC00521 | 1.73e6 | 1.75e6 | 1.13e6 | 1.28e6 | inactive |
| kis (kismet) | DRSC00625 | 1.80e6 | 1.78e6 | 1.03e6 | 1.14e6 | inactive |
| kis (kismet) | DRSC00823 | 1.32e6 | 1.34e6 | 8.72e5 | 8.31e5 | inactive |
| CG9391 | DRSC11858 | 1.47e6 | 1.60e6 | 1.24e6 | 1.35e6 | inactive |
| Eig71Ej | DRSC11157 | 1.35e6 | 1.41e6 | 1.21e6 | 1.32e6 | inactive |
| Spn42Dd (Serpin 42Dd) | DRSC05024 | 1.77e6 | 1.88e6 | 1.43e6 | 1.61e6 | inactive |
| spri (sprint) | DRSC17846 | 1.42e6 | 1.39e6 | 8.81e5 | 9.92e5 | inactive |
| spri (sprint) | DRSC17984 | 1.48e6 | 1.52e6 | 1.02e6 | 1.17e6 | inactive |
| spri (sprint) | DRSC17985 | 1.59e6 | 1.71e6 | 1.05e6 | 1.15e6 | inactive |
| spri (sprint) | DRSC17986 | 1.84e6 | 1.74e6 | 1.15e6 | 1.26e6 | inactive |
| spri (sprint) | DRSC17988 | 1.67e6 | 1.56e6 | 1.05e6 | 1.16e6 | inactive |
| spri (sprint) | DRSC17989 | 1.59e6 | 1.48e6 | 1.03e6 | 1.10e6 | inactive |
| CG42544 | DRSC12451 | 1.37e6 | 1.48e6 | 1.06e6 | 1.19e6 | inactive |
| Rpn3 (Regulatory particle non-ATPase 3) | DRSC03318 | 9.59e5 | 9.85e5 | 6.80e5 | 2.69e5 | active |

Laid out differently: entries from further up.
{"Gene": "Eig71Ej", "DRSC id": "DRSC11157", "Kc cell number, rep 1": 1.35e6, "Kc cell number, rep 2": 1.41e6, "S2R+ cell number, rep 1": 1.21e6, "S2R+ cell number, rep 2": 1.32e6, "activity call": "inactive"}
{"Gene": "Spn42Dd (Serpin 42Dd)", "DRSC id": "DRSC05024", "Kc cell number, rep 1": 1.77e6, "Kc cell number, rep 2": 1.88e6, "S2R+ cell number, rep 1": 1.43e6, "S2R+ cell number, rep 2": 1.61e6, "activity call": "inactive"}
{"Gene": "spri (sprint)", "DRSC id": "DRSC17846", "Kc cell number, rep 1": 1.42e6, "Kc cell number, rep 2": 1.39e6, "S2R+ cell number, rep 1": 8.81e5, "S2R+ cell number, rep 2": 9.92e5, "activity call": "inactive"}
